This note sets out measurements from the supplement of paper PMC6411743.

By UniProt entry, the sequences of proteins in these tests, tags left out. Where a name states a change or a piece, a line headed by the entry shows the natural chain unless it says otherwise.
UniProt Q9Y244: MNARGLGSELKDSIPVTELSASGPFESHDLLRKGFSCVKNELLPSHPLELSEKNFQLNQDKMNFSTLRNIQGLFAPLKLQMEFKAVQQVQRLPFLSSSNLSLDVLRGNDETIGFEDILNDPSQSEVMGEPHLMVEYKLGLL
UniProt Q9Y285: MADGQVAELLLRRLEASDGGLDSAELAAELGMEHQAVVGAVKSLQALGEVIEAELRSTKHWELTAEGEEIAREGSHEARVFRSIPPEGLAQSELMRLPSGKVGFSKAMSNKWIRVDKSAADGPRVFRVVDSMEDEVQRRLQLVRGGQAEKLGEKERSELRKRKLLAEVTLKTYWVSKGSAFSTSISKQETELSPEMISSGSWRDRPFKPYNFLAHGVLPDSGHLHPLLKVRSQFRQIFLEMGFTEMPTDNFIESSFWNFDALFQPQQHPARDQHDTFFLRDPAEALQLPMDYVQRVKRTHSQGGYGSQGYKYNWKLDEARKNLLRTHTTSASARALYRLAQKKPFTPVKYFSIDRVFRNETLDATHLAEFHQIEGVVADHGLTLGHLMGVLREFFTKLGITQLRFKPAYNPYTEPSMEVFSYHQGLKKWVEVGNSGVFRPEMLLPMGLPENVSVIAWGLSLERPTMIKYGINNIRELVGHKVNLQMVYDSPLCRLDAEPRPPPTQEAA
UniProt Q9UNA1: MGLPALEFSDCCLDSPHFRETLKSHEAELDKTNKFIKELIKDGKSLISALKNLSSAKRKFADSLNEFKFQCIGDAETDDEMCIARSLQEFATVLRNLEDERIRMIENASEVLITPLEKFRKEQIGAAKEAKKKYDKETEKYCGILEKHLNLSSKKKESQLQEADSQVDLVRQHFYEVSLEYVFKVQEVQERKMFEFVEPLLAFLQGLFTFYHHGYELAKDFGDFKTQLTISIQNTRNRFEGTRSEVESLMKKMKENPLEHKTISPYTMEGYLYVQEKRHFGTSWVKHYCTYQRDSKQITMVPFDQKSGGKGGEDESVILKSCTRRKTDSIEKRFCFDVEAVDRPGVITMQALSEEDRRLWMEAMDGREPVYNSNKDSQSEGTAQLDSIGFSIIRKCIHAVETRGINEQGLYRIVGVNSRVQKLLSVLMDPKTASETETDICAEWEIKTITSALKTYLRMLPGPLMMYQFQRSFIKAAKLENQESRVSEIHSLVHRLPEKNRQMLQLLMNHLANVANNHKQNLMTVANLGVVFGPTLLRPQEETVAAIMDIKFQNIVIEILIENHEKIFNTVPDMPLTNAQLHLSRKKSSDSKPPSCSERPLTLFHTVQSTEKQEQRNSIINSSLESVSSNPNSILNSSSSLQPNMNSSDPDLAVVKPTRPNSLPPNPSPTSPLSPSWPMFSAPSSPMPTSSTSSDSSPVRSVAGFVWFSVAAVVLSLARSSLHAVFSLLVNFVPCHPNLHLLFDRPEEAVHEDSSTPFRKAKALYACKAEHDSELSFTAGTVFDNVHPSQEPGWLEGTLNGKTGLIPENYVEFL
UniProt Q9UMX0, whole entry: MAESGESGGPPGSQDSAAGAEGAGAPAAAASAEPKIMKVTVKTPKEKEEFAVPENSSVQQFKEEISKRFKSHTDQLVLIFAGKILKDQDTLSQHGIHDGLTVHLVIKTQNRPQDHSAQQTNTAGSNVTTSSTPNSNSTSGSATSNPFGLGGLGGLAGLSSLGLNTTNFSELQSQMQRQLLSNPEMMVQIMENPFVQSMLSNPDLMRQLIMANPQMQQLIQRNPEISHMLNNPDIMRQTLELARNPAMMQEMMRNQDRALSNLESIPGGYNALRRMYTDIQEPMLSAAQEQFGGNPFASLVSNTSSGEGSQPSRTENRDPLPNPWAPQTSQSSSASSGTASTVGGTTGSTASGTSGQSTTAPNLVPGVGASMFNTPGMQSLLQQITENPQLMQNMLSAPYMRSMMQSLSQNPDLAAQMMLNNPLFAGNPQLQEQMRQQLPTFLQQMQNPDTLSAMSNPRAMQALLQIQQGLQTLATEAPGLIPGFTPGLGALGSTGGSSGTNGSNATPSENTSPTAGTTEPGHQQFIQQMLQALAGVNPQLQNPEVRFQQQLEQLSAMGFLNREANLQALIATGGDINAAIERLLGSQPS
UniProt Q9Y5P6: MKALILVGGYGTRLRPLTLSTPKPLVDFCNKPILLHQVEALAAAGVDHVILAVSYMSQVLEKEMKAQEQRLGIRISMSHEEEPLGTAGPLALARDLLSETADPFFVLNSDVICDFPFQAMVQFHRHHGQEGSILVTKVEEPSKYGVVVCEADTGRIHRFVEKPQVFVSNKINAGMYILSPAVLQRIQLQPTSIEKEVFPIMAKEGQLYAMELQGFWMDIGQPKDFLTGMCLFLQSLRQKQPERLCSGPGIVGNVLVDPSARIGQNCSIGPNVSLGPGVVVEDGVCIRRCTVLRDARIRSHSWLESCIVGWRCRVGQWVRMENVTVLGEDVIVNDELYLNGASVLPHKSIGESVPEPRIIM
UniProt Q9Y376: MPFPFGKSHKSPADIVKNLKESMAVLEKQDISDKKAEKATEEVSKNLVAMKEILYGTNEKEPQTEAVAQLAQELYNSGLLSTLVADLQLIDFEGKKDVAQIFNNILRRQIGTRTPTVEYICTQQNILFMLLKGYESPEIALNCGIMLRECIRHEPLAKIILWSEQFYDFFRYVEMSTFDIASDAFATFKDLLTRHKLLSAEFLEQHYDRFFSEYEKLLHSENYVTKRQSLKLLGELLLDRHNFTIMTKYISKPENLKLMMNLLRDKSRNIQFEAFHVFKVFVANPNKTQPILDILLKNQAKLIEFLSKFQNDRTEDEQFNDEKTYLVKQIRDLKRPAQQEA
UniProt Q9Y4G8: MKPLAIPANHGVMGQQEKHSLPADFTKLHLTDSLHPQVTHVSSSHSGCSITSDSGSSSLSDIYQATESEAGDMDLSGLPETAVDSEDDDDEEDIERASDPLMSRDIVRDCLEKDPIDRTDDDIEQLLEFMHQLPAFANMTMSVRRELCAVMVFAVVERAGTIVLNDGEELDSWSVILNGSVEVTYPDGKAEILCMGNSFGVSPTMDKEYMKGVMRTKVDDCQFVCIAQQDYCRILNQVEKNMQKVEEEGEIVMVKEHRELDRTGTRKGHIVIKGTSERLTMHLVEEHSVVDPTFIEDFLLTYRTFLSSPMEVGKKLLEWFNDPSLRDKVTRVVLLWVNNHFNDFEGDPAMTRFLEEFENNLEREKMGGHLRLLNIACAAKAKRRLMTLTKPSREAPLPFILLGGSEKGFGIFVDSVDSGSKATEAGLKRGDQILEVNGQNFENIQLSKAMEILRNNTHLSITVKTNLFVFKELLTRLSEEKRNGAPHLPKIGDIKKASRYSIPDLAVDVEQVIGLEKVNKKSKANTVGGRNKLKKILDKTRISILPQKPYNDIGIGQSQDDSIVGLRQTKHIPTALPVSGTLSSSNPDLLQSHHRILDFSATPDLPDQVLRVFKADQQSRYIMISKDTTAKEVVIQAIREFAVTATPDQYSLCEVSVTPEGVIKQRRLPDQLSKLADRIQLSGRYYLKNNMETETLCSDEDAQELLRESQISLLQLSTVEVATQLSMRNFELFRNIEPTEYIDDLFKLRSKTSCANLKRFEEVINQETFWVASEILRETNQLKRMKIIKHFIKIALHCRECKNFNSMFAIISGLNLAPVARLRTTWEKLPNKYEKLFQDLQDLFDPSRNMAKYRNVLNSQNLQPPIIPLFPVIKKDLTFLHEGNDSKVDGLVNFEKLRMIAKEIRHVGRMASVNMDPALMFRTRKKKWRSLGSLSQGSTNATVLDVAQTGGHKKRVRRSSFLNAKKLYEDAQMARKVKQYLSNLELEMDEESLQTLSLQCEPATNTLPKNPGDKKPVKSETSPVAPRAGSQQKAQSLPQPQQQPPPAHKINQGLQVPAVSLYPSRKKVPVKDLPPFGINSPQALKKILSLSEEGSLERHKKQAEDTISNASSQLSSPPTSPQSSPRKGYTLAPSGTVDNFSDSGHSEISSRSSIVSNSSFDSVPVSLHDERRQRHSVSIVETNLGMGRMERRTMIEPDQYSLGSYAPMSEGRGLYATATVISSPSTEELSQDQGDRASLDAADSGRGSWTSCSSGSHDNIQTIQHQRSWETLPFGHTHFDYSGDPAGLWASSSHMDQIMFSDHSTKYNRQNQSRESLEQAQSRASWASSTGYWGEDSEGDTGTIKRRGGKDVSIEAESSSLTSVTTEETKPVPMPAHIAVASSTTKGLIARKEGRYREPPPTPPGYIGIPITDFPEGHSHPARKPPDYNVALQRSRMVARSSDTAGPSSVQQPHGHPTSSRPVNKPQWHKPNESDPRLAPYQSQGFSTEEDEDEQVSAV
UniProt Q9Y2H6: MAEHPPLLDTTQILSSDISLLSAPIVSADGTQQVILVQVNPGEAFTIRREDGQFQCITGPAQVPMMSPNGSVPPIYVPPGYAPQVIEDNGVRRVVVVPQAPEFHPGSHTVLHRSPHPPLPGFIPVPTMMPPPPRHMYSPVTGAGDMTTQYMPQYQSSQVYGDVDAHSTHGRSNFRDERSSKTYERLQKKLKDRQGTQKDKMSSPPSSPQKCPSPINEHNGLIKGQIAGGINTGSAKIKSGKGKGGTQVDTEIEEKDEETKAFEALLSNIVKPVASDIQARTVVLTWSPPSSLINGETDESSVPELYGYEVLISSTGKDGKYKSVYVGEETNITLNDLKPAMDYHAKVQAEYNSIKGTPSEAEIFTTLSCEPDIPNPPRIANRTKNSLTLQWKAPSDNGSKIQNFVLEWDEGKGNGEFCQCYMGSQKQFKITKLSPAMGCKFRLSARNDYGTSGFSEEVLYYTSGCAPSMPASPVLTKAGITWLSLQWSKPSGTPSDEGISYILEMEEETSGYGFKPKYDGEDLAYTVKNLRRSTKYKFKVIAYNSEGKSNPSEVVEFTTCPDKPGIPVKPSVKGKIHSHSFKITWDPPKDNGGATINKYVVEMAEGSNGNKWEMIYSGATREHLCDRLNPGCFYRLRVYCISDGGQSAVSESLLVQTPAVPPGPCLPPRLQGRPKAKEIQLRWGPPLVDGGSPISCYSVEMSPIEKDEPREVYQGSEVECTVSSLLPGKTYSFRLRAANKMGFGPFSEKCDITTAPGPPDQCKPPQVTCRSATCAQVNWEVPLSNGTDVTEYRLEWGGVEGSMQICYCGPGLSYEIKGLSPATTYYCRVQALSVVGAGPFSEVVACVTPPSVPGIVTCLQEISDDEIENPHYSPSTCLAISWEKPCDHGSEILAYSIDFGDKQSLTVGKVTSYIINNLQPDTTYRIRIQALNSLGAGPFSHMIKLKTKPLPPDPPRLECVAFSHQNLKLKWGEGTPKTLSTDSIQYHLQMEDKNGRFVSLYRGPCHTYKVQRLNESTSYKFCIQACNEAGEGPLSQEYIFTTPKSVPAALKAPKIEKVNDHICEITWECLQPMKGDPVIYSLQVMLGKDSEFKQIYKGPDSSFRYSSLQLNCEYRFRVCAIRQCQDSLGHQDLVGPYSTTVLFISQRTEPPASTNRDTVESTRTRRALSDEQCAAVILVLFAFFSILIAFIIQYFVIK

± gives the standard deviation of the averaged measurements. Some of the results follow.

Compound in the test: Nc1nc2c(ncn2[C@@H]2O[C@H](COP(=O)(O)OP(=O)(O)OP(=O)(O)O)[C@@H](O)[C@H]2O)c(=O)[nH]1 [guanosine triphosphate]
Put plainly: NP40-soluble protein abundance relative to vehicle (solubility fold change) (ratio); higher = more soluble protein in presence of GTP. The method in brief:
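Each value is a fold change relative to the detergent-processed vehicle, calculated per replicate from vsn-normalised intensities. Jurkat crude lysate received eight concentrations (0.1 to 10 mM) for 10 min at room temperature and 3 min at 37 °C, then was solubilised in 0.8% NP40 with benzonase (60 min, 4 °C). The ultracentrifuged supernatant was TMT-labelled and run by LC-MS/MS in three independent experiments.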

As to GTF3C3 (UniProt Q9Y5Q9), the NP40-soluble protein abundance reads like this: (concentration: 0.1mM) 1.02 ± 0.038; (concentration: 0.5mM) 1.09 ± 0.033; (concentration: 1mM) 1.01 ± 0.038; (concentration: 2mM) 1.06 ± 0.02; (concentration: 4mM) 1.01 ± 0.029; (concentration: 6mM) 1.04 ± 0.017. Further, the NP40-soluble protein abundance came to 1.05 ± 0.057 (concentration: 8mM) and 1 ± 0.029 (concentration: 10mM).

In the case of POMP (UniProt Q9Y244), the NP40-soluble protein abundance reads like this: (concentration: 0.1mM) 0.87 ± 0.079; (concentration: 0.5mM) 0.865 ± 0.045; (concentration: 1mM) 1.05 ± 0.13; (concentration: 2mM) 0.998 ± 0.032; (concentration: 4mM) 0.989 ± 0.069; (concentration: 6mM) 1.01 ± 0.051. Besides, the NP40-soluble protein abundance was 1.02 ± 0.12 (concentration: 8mM) and 1.09 ± 0.14 (concentration: 10mM).

Take FARSA (UniProt Q9Y285): the NP40-soluble protein abundance (concentration: 0.1mM) stood at 1.02 ± 0.032; the NP40-soluble protein abundance (concentration: 0.5mM) turned out to be 1.03 ± 0.1; the NP40-soluble protein abundance (concentration: 1mM) came out at 0.898 ± 0.06; the NP40-soluble protein abundance (concentration: 2mM) amounted to 0.925 ± 0.1; the NP40-soluble protein abundance (concentration: 4mM) came to 0.931 ± 0.073; the NP40-soluble protein abundance (concentration: 6mM) came out at 0.887 ± 0.091. Moreover, the NP40-soluble protein abundance runs as follows: (concentration: 8mM) 0.86 ± 0.037; (concentration: 10mM) 0.851 ± 0.028.

Take UniProt Q9UNA1 and related entries: the NP40-soluble protein abundance (concentration: 0.1mM) came to 1.11 ± 0.075; the NP40-soluble protein abundance (concentration: 0.5mM) came out at 1.12 ± 0.18; the NP40-soluble protein abundance (concentration: 1mM) was determined as 1.06 ± 0.081; the NP40-soluble protein abundance (concentration: 2mM) was 1.09 ± 0.11; the NP40-soluble protein abundance (concentration: 4mM) came out at 1.03 ± 0.088; the NP40-soluble protein abundance (concentration: 6mM) is 1.07 ± 0.16. For the same target, the NP40-soluble protein abundance (concentration: 8mM) is 1.05 ± 0.089 and the NP40-soluble protein abundance (concentration: 10mM) worked out at 0.978 ± 0.03.

With UniProt Q9UMX0 and related entries, the NP40-soluble protein abundance was determined as 0.999 ± 0.07 (concentration: 0.1mM); 0.998 ± 0.015 (concentration: 0.5mM); 1.09 ± 0.11 (concentration: 1mM); 1.02 ± 0.032 (concentration: 2mM); 1.012 ± 0.0015 (concentration: 4mM); 0.994 ± 0.039 (concentration: 6mM). The NP40-soluble protein abundance reads like this: (concentration: 8mM) 1.02 ± 0.053; (concentration: 10mM) 1.01 ± 0.039.

Turning to UniProt Q9Y5P6 and related entries, the NP40-soluble protein abundance is 0.995 ± 0.015 (concentration: 0.1mM); 1 ± 0.015 (concentration: 0.5mM); 0.9147 ± 0.008 (concentration: 1mM); 0.916 ± 0.051 (concentration: 2mM); 0.914 ± 0.018 (concentration: 4mM); 0.907 ± 0.01 (concentration: 6mM). Besides, the NP40-soluble protein abundance by setting is: (concentration: 8mM) 0.883 ± 0.013; (concentration: 10mM) 0.874 ± 0.063.

Regarding CLIC4 (UniProt Q9Y696), the NP40-soluble protein abundance reads like this: (concentration: 0.1mM) 1 ± 0.088; (concentration: 0.5mM) 0.929 ± 0.063; (concentration: 1mM) 0.966 ± 0.1; (concentration: 2mM) 0.88 ± 0.1; (concentration: 4mM) 0.976 ± 0.13; (concentration: 6mM) 0.909 ± 0.1. The NP40-soluble protein abundance runs as follows: (concentration: 8mM) 0.973 ± 0.12; (concentration: 10mM) 0.866 ± 0.08.

With DNMT3A (UniProt Q9Y6K1), the NP40-soluble protein abundance (concentration: 0.1mM) was determined as 1.091 ± 0.0068; the NP40-soluble protein abundance (concentration: 0.5mM) was 1.06 ± 0.03; the NP40-soluble protein abundance (concentration: 1mM) amounted to 1.04 ± 0.019; the NP40-soluble protein abundance (concentration: 2mM) came out at 1.12 ± 0.1; the NP40-soluble protein abundance (concentration: 4mM) was 1.09 ± 0.057; the NP40-soluble protein abundance (concentration: 6mM) was 1.09 ± 0.081. The NP40-soluble protein abundance is 1.1 ± 0.037 (concentration: 8mM) and 1.08 ± 0.07 (concentration: 10mM).

With MTCH2 (UniProt Q9Y6C9), the NP40-soluble protein abundance was 1.16 ± 0.1 (concentration: 0.1mM); 1.16 ± 0.11 (concentration: 0.5mM); 1.01 ± 0.095 (concentration: 1mM); 0.981 ± 0.091 (concentration: 2mM); 0.924 ± 0.08 (concentration: 4mM); 0.934 ± 0.11 (concentration: 6mM). The NP40-soluble protein abundance came to 0.949 ± 0.11 (concentration: 8mM) and 0.913 ± 0.087 (concentration: 10mM).

Consider NUBP2 (UniProt Q9Y5Y2), for which the NP40-soluble protein abundance was found to be 0.986 ± 0.013 (concentration: 0.1mM); 0.971 ± 0.039 (concentration: 0.5mM); 0.945 ± 0.087 (concentration: 1mM); 0.963 ± 0.043 (concentration: 2mM); 0.973 ± 0.031 (concentration: 4mM); 0.906 ± 0.041 (concentration: 6mM). Moreover, the NP40-soluble protein abundance (concentration: 8mM) was 0.908 ± 0.053 and the NP40-soluble protein abundance (concentration: 10mM) was 0.916 ± 0.069.

In the case of UniProt Q9Y376 and related entries, the NP40-soluble protein abundance reads like this: (concentration: 0.1mM) 0.992 ± 0.029; (concentration: 0.5mM) 0.927 ± 0.026; (concentration: 1mM) 0.899 ± 0.083; (concentration: 2mM) 0.874 ± 0.015; (concentration: 4mM) 0.872 ± 0.05; (concentration: 6mM) 0.831 ± 0.035. In addition, the NP40-soluble protein abundance was determined as 0.814 ± 0.11 (concentration: 8mM) and 0.798 ± 0.091 (concentration: 10mM).

As for RAPGEF2 (UniProt Q9Y4G8), the NP40-soluble protein abundance is, setting by setting: (concentration: 0.1mM) 1.04 ± 0.1; (concentration: 0.5mM) 1.05 ± 0.13; (concentration: 1mM) 1.01 ± 0.066; (concentration: 2mM) 0.977 ± 0.076; (concentration: 4mM) 0.887 ± 0.089; (concentration: 6mM) 0.932 ± 0.075. Further, the NP40-soluble protein abundance is, setting by setting: (concentration: 8mM) 0.959 ± 0.19; (concentration: 10mM) 0.902 ± 0.064.

Consider UniProt Q9Y2H6 and related entries, for which the NP40-soluble protein abundance reads like this: (concentration: 0.1mM) 1.02 ± 0.075; (concentration: 0.5mM) 0.977 ± 0.031; (concentration: 1mM) 0.9802 ± 0.0098; (concentration: 2mM) 0.976 ± 0.032; (concentration: 4mM) 0.979 ± 0.024; (concentration: 6mM) 0.943 ± 0.037. For the same target, the NP40-soluble protein abundance runs as follows: (concentration: 8mM) 0.924 ± 0.031; (concentration: 10mM) 0.922 ± 0.081.
